Structures can show the parent of a compound that is named as a salt. The list shows a part of the results. Hit calls seldom repeat between salt and free forms of one compound.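 In K562 cells expressing nanoluciferase-fused kinases, luminescence was recorded at 4 h intervals between 2 and 18 h, normalized as percent of control with DMSO at 100% and a positive control at 0%. A significant (2 sigma) signal drop marks a time point as decreased. The authors' rule for a hit is not shown and takes in more than the number of time points.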
Target: PDPK1 (UniProt O15530)
Test: number of time points (of 5) at which kinase-Nluc abundance scored as decreased, DMSO-normalised (count); higher = more persistent destabilization
Details: K562; 2-18 h

Amino acid sequences for entries named in this document (tags omitted). A change or cut given only in a name is not applied to a line headed by its entry.
UniProt O15530: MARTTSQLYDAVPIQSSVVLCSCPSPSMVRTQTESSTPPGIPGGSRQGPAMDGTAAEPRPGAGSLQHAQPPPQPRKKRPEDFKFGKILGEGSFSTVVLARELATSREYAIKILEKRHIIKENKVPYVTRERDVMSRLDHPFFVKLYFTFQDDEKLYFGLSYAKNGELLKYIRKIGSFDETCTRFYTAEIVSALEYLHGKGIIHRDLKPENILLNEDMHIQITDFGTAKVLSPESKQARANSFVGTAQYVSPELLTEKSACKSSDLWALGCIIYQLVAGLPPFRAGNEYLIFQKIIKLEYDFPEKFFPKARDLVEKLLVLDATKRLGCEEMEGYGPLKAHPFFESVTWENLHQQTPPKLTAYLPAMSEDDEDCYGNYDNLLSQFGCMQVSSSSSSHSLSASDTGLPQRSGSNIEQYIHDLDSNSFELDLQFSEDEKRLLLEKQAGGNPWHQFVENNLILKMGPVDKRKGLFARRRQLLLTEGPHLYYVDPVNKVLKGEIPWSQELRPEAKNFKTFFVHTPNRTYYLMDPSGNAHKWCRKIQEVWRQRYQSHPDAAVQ
UniProt P42356, whole entry, looked up: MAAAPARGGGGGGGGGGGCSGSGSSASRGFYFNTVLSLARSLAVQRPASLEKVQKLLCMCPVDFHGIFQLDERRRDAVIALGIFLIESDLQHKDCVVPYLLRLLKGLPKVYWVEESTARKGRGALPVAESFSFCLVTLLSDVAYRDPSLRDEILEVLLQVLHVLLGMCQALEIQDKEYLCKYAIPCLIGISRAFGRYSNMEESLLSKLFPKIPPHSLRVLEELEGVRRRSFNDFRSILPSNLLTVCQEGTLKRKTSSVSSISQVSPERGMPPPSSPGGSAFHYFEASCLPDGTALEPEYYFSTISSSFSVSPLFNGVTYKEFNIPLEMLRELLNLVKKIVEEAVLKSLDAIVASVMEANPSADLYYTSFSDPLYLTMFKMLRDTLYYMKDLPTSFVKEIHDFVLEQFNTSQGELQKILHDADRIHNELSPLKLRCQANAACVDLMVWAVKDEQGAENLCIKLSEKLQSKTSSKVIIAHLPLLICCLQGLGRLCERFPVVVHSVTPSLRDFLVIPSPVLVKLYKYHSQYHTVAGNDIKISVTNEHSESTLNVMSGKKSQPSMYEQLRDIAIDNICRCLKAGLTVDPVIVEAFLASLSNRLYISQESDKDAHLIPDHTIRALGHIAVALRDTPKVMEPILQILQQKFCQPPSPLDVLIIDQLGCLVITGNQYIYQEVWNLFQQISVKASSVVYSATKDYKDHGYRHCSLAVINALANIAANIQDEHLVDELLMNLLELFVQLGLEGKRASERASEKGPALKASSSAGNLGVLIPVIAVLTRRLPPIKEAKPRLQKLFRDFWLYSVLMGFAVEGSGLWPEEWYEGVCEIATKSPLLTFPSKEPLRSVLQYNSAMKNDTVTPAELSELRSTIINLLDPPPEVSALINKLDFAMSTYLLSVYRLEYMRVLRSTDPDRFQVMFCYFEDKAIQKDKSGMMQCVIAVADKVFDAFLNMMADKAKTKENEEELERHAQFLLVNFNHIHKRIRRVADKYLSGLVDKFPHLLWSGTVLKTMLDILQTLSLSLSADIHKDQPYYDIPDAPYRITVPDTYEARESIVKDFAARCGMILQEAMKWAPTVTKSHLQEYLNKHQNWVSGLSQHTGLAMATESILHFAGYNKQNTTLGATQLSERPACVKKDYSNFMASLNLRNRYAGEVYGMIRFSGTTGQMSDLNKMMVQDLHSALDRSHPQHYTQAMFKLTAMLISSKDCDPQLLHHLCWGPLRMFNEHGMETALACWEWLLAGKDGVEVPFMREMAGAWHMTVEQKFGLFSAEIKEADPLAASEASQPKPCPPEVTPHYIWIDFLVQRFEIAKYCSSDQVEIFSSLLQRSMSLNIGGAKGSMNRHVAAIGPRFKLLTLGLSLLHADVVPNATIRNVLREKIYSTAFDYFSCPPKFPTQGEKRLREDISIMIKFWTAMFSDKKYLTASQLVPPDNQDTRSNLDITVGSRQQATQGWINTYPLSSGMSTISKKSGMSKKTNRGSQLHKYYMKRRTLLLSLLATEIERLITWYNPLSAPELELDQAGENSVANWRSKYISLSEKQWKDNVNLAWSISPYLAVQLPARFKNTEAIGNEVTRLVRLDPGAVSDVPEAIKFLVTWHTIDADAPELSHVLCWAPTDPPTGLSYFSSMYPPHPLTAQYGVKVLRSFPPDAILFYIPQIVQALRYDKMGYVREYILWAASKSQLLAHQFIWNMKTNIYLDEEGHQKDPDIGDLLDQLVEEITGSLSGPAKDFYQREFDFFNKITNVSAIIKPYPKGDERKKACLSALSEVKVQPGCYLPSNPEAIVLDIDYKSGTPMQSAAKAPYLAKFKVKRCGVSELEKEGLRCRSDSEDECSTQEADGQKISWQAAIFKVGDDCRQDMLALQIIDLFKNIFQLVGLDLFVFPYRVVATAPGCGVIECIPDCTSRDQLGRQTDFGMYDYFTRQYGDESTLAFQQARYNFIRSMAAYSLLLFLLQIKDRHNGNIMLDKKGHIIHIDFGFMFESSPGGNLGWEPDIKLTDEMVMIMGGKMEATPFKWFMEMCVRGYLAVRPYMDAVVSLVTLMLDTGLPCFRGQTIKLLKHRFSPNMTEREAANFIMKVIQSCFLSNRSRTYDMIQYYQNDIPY

In order of falling “number of time points” value:
1. Nc1ncnc2c1ncn2[C@@H]1O[C@@H]2COP(O)(=S)O[C@H]2[C@H]1O (stereo not given in full) [Sp-cAMPS (sodium salt)] (10 µM)  0
2. CN(C)C(=O)c1ccc(Cn2c(C(=O)O)cc3c(Br)cc(Sc4ccc(Cl)c(Cl)c4)cc32)cc1 [Rheb inhibitor NR1] (10 µM)  0
3. C/C=C(/C)C(=O)O[C@H]1[C@@H]2[C@H](C)C(=O)O[C@@H]2C[C@@H](C)[C@@H]2C=CC(=O)[C@]21C [Brevilin A] (2.5 µM)  0

Target: PIK4CA (UniProt P42356)
Test: as above
Details: K562; 2-18 h

In order of falling “number of time points” value:
1. C[C@H]1CC[C@]2(NC1)O[C@H]1C[C@H]3[C@@H]4CC[C@H]5C[C@@H](O[C@@H]6O[C@H](CO)[C@H](O[C@@H]7O[C@H](CO)[C@@H](O)[C@H](O[C@@H]8OC[C@@H](O)[C@H](O)[C@H]8O)[C@H]7O[C@@H]7O[C@H](CO)[C@@H](O)[C@H](O)[C@H]7O)[C@H](O)[C@H]6O)CC[C@]5(C)[C@H]4CC[C@]3(C)[C@H]1[C@@H]2C [Tomatine] (2.5 µM)  4
2. CCCCNc1nc(N)c2[nH]c(=O)n(Cc3ccc(C)nc3)c2n1 (10 µM)  0
3. C[C@H](CCC(=O)O)C[C@H](C)C[C@H](C)C(=O)/C=C(\O)[C@H](C)C[C@H](C)C/C=C/[C@@H](C)[C@@H](O)[C@@H](C)[C@@H](O)C[C@@H]1CC[C@@](C)([C@H]2CC[C@@](C)([C@@H](C)O)O2)O1 [Ionomycin (calcium)] (2.5 µM)  0
4. CCOC(=O)c1c(/C(C#N)=C\N)c2ccc(Cl)c(Cl)c2n1C (10 µM)  0
5. CC(=O)OC(C)(C)/C=C/C(=O)[C@](C)(O)[C@H]1[C@H](O)C[C@@]2(C)[C@@H]3CC=C4[C@@H](C=C(O)C(=O)C4(C)C)[C@]3(C)C(=O)C[C@]12C [Cucurbitacin E] (2.5 µM)  0
6. O=C1C=CC[C@@H]2[C@H]3CCCN4CCC[C@@H](CN12)[C@@H]34 [Sophocarpine (monohydrate)] (2.5 µM)  0
7. C=CC(=O)Nc1ccc2[nH]c(=O)n(C3CCN(Cc4ccc(-c5nc6cc[nH]c(=O)c6cc5-c5ccccc5)cc4)CC3)c2c1 [Borussertib] (10 µM)  0
8. O=C1C=CC[C@@H]2[C@H]3CCCN4CCC[C@@H](CN12)[C@@H]34 [Sophocarpine] (10 µM)  0
9. C=CC(=O)N[C@H]1C=C(C)c2c(-c3cnc4ccccc4c3)c3c(N)ncnc3n2C1 (10 µM)  0
10. Cn1cc(C2=C(c3cn(C4CCN(Cc5ccccn5)CC4)c4ccccc34)C(=O)NC2=O)c2ccccc21 [Enzastaurin] (10 µM)  0
11. CCN1CCN(C(=O)Cc2ccc(Nc3ncc(F)c(Nc4ccc(C(=O)Nc5ccccc5Cl)cc4)n3)cc2)CC1 (2.5 µM)  0
12. C[C@H]1CC[C@]2(NC1)O[C@H]1C[C@H]3[C@@H]4CC[C@H]5C[C@@H](O)CC[C@]5(C)[C@H]4CC[C@]3(C)[C@H]1[C@@H]2C [Tomatidine (hydrochloride)] (10 µM)  0
13. O=[N+]([O-])/C=C/c1ccc2c(c1)OCO2 (2.5 µM)  0
14. NCCc1cn(S(=O)(=O)c2c(Cl)nc3sccn23)c2ccccc12 (10 µM)  0
15. COc1ccc(N(C(=O)Oc2c(C)cccc2C)c2ccnc(Nc3ccc(N4CCN(C)CC4)cc3)n2)c(OC)c1 (2.5 µM)  0
16. Cc1ccccc1-n1c(Cn2cnc3c(N)ncnc32)nc2cccc(C)c2c1=O (10 µM)  0
17. Cc1[nH]ncc1-c1cc2nc([C@H]3CC4CCN3CC4)[nH]c(=O)c2s1 [(R)-Simurosertib] (10 µM)  0
18. CC1C(=O)OC2C(O)C34C5OC(=O)C3(OC3OC(=O)C(O)C34C(C(C)(C)C)C5O)C12O (stereo not given) [Ginkgolide C] (10 µM)  0
19. O=C(/C=C/c1ccccc1)OC[C@H]1O[C@@H](O[C@@H]2OC=C[C@H]3[C@H](O)[C@@H]4O[C@]4(CO)[C@@H]23)[C@H](O)[C@@H](O)[C@@H]1O [Picroside I] (10 µM)  0
20. CC1=C[C@]23C(=O)[C@@H](C=C(CO)[C@@H](O)[C@]2(O)[C@H]1O)[C@H]1[C@@H](C[C@H]3C)C1(C)C [Ingenol] (10 µM)  0
21. O=Cc1cn(Cc2ccc(Cl)cc2)c2ccccc12 [Oncrasin-1] (10 µM)  0
22. C[C@@H]1CC[C@H]2[C@@H](C)C(=O)O[C@@H]3O[C@@]4(C)CC[C@@H]1[C@]32OO4 [Artemisinin] (10 µM)  0

Source: the supplement of paper PMC12823440, “Inhibitors supercharge kinase turnover through native proteolytic circuits” (Nature, 2025)
